Results are given in words; binding and its absence hold for the method and conditions named. Some binding calls cover weakened binding; strength is not graded here.
How the values were obtained:
hen egg lysozyme [1] = molecular target: T1, hen egg lysozyme (hen, UniProt P00698 19-147); assay: SPR, biotin-VLRB.CTMut.5 captured on NeutrAvidin, 2-fold HEL dilutions 7.66-0.00299 nM injected
T1 construct: Soluble monovalent antigen; Biotinylated for YSD titration; unlabelled analyte in SPR and titrant in ITC; also called HEL

hen egg lysozyme [2] = molecular target: T1, hen egg lysozyme; assay: yeast surface display flow cytometry: biotinylated HEL + SA-PE against anti-HA Alexa 488

B1: VLRB.CTMut.5 (other)
chain: ACPSQCSCDQTTVYCHNRRLTSVPTGIPTTTQVLYLYDNQITKLEPGVFDRLTKLTHLSLGYNQLKSVPRGAFDNLKSLTHIWLLNNPWDCQCTDILYLKNWIVQHASIVNPHTHGGVDNVKCSGTNTPVRAVTEASTSPSKC
binding (hen egg lysozyme [1]): binds | binding (hen egg lysozyme [2]): binds
